{"source": "patent US20020169296A1", "about": "“Linked, sequence-specific DNA-binding molecules” (priority 2000, published 2002)", "biological_target": "T1, GAGA factor (GAF) (UniProt Q08605)", "T1 sequence (looked up, limits assumed)": "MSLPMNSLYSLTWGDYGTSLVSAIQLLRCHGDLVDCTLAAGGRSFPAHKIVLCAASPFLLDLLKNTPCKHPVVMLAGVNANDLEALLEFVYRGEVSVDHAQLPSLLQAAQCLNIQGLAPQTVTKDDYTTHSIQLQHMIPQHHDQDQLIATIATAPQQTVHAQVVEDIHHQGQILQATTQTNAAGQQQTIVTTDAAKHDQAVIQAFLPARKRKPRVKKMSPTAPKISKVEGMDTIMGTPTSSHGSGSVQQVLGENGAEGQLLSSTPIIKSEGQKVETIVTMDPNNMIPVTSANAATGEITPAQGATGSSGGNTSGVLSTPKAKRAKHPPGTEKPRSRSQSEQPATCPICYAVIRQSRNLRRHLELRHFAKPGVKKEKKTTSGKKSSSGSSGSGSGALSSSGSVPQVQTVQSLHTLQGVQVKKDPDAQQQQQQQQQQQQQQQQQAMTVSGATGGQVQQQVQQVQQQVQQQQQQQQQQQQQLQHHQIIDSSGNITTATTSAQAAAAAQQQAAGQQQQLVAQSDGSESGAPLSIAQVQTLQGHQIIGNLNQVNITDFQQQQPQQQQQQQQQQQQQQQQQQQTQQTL", "test": "footprint", "conditions": "DNase I footprint; GAF protects both the (AAGAG)2 and Ubx motifs; room temperature; label: radiolabeled (end-labeled)", "note": "For at least one entry, the source does not settle the construct or the ends of the probe. Where a protein sequence is shown, tags need not be part of it.", "data": [{"sequence": "GATCCTCAGAGAGAGCGCAAGAGCGTCCCGGGAGAAGAGAAGAGAGTA / GATCTACTCTCTTCTCTTCTCCCGGGACGCTCTTGCGCTCTCTCTGAG", "values": [{"measurement": "binding result", "value": "binds"}]}]}
